Columns and labels:
[1] = tested on: SH-SY5Y cells; conditions: human; note: reference of the scale not given here
[2] = tested on: SH-SY5Y cells; note: reference of the scale not given here
[3] = tested on: endogenous TFE3; assay: TFE3 nuclear translocation, immunocytochemistry high-content imaging; format: cell-based
[4] = tested on: endogenous TFEB; assay: TFEB nuclear translocation, immunocytochemistry high-content imaging; format: cell-based
[5] = tested on: SH-SY5Y cells; conditions: human; remark: listed apart in the source; note: reference of the scale not given here

With `Cc1cccc(Cn2ccn3c(=O)cc(N4CCOCC4)nc23)c1` [UNC10225202A] the “Nuclear Count” value [1] was 108.76, the “DQ Intensity” value [2] was 101.87 and the “DQ Spot” value [2] was 127.35. For the same compound, the TFE3 % [3] was 8.06%, the TFEB % [4] was 3.23% and the AK [5] was 84.68.
`COc1cc2ncnc(Nc3cccc(Br)c3)c2cc1OC.Cl` [UNC10225449A] gave an AK [5] of 89.71.

Source: article PMC9851200, “Multiparameter phenotypic screening for endogenous TFEB and TFE3 translocation identifies novel chemical series modulating lysosome function” (Autophagy, 2022)
